At least one compound was matched to its structure with a doubt left.
Test system: MMP1 gene expression in HSC-3 cells
Experiment: qRT-PCR of MMP1 gene expression in HSC-3 cells
Type: cell-based, human
Details: 25 μM CPA
Method: (D) is a schematic of the Boyden chambers and solutions used to quantify cell invasion. DOK cells overexpressing ORAI1 (O1) and STIM1 (S1) were seeded in the top chamber with 2% FBS. Media in the bottom chamber contained 10% FBS.
The role of ORAI1 in oral cancer progression was further elucidated by examining the expression of oncogenes in oral cancer, such as MMP1^9,27, as a proof of concept. We first verified the expression of MMP1 in HaCaT, DOK and HSC-3 cells by qRT-PCR analysis. All cells expressed MMP1 in the order oral cancer HSC-3 cells>dysplastic DOK cells>HaCaT cells (FIG. 2A). We next stimulated HSC-3 cells using different concentrations of CPA to examine changes in MMP1 gene expression mediated by SOCE activation. […] These findings were further supported by the decrease in the expression of MMP1 seen in HSC-3 cells with ORAI1 knockdown or deletion. Because in many cells SOCE activation targets the phosphorylation of the transcription factor NFAT (nuclear factor of activated T cells) and its downstream effectors ^28, and because a previous study implicated NFAT in regulating stemness in oral cancer cells ^16, we next interrogated if the transcriptional up-regulation of MMP1 was downstream of NFAT. We first verified the expression of NFAT isoforms (NFAT1-4) in HaCaT, DOK and HSC-3 cells by qRT-PCR analysis showing that NFAT4 (coded by NFATc3) was the most abundant transcript.

## CC(=O)C1=C(O)[C@@H]2[C@H]3c4c[nH]c5cccc(c45)C[C@H]3C(C)(C)N2C1=O [CPA, cyclopiazonic acid]
  MMP1 gene expression: significant increase

Reference: patent US20230414609A1, “USES OF ORAI1-SPECIFIC CALCIUM CHANNELS IN TREATMENT OF ORAL CANCER” (New York University, priority 2022, published 2023)
